The list shows a part of the results.
Experiments:
Assay in all cases: log2 fold change, soluble protein after heating vs DMSO (PISA); higher = thermal stabilisation; K562 cells, 10 uM, 30 min; active = over 0.2 and 3.5 SD of the protein, either way, in both replicates (recomputed)
[1] = compound: NC(=O)Nc1cc(-c2cccc(F)c2)sc1C(=O)N[C@H]1CCCNC1
Method in brief: (§1)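 K562 cells at 2×10^6 cells/mL were given 10 μM compound for 30 min. Aliquots then went through 3 min of heating across 48°C-58°C, were pooled, and were extracted in PBS with 0.5% NP-40 at 4°C, and the supernatant after 21,000xg for 90 min was quantified by TMTpro 16plex LC-MS/MS with channel sums equalised. Thermal stability relative to control samples, from duplicates, is given as log2 fold change.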

Sequences of proteins named here, by UniProt entry; tags and fusion partners are left off. A change or cut given only in a name is not applied to a line headed by its entry.
UniProt Q9H910: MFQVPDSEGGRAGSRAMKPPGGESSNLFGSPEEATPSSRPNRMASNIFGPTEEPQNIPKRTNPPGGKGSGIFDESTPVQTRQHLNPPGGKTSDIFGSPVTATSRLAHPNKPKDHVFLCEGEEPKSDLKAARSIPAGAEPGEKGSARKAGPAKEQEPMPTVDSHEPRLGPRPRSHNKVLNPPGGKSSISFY
UniProt P33176: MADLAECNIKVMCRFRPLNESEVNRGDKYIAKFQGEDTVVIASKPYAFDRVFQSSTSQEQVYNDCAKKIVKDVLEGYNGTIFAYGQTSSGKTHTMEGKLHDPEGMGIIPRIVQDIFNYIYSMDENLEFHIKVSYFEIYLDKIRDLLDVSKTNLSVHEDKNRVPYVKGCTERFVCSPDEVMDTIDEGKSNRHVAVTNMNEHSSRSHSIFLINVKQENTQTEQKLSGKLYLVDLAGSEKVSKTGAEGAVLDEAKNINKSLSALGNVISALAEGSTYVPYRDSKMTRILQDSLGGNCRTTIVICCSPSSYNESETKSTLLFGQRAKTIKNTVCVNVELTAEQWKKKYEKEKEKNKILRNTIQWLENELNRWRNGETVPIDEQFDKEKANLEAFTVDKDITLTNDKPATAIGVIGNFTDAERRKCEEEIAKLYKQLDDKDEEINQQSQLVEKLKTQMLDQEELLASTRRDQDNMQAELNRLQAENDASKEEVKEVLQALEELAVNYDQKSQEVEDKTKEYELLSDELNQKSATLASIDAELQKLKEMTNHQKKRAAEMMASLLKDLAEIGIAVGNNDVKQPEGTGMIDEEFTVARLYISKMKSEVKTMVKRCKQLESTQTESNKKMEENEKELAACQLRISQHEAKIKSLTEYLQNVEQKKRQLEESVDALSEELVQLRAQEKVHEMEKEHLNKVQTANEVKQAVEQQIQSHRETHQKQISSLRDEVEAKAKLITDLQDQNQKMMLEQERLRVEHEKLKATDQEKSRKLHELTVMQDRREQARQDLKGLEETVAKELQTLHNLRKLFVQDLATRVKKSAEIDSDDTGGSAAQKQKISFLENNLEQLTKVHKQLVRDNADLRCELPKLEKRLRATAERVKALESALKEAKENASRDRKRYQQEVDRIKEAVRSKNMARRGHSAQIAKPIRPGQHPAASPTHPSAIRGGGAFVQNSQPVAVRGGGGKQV
UniProt Q8IZA0: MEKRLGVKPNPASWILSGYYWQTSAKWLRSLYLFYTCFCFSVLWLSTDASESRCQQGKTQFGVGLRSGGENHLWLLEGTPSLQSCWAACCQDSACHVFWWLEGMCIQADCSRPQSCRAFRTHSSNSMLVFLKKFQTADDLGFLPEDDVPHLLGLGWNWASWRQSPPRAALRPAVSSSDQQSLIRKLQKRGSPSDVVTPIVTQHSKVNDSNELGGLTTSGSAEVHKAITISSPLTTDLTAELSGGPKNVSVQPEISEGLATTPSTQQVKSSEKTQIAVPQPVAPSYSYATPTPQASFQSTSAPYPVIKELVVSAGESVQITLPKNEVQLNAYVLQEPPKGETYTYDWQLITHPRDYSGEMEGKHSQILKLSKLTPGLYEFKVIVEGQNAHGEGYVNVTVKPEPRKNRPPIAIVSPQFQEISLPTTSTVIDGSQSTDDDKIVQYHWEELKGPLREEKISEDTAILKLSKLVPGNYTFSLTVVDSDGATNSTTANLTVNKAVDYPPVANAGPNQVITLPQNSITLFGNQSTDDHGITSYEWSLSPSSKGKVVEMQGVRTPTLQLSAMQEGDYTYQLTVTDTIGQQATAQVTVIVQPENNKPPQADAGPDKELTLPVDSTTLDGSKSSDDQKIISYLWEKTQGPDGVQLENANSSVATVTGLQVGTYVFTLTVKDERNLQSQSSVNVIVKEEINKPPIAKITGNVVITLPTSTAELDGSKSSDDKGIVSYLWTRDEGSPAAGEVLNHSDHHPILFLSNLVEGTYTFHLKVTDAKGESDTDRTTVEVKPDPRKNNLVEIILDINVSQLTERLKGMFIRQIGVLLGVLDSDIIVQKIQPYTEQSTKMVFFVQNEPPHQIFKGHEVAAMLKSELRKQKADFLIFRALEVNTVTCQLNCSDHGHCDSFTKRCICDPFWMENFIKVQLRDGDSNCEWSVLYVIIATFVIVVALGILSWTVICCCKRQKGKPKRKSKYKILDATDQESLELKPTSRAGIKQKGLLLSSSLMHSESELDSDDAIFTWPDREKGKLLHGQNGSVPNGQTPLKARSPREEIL
UniProt P52294, whole entry, looked up: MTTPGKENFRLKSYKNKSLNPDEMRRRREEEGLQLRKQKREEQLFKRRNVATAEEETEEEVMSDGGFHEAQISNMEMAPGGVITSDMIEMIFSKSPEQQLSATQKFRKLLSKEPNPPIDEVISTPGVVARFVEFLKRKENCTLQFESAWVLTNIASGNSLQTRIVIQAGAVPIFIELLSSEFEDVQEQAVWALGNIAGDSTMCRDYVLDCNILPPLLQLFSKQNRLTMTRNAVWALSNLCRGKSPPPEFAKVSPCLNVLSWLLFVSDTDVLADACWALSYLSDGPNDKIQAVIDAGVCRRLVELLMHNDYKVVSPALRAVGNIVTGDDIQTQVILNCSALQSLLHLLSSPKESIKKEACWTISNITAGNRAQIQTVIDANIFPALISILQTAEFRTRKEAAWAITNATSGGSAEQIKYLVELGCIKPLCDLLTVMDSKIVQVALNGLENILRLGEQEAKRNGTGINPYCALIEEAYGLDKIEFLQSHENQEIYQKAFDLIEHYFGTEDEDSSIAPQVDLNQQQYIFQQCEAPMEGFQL
UniProt P17535: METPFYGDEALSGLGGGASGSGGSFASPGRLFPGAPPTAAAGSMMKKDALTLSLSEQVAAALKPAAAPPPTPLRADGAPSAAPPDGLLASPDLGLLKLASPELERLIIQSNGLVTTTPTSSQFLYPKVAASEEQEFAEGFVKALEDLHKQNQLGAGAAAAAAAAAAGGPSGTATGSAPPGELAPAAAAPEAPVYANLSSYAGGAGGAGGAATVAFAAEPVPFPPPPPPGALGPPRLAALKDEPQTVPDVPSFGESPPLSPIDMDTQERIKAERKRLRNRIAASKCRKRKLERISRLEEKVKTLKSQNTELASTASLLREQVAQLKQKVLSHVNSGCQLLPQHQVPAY
UniProt Q96A73: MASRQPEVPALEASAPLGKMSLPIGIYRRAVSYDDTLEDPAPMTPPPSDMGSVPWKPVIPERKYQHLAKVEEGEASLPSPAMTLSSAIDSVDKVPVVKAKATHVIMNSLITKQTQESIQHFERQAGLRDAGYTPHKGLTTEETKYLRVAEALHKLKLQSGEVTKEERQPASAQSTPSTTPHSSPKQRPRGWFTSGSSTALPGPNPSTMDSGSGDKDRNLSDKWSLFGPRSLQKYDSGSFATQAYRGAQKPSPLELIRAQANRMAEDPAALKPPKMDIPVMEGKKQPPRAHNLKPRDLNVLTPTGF
UniProt Q9NS87: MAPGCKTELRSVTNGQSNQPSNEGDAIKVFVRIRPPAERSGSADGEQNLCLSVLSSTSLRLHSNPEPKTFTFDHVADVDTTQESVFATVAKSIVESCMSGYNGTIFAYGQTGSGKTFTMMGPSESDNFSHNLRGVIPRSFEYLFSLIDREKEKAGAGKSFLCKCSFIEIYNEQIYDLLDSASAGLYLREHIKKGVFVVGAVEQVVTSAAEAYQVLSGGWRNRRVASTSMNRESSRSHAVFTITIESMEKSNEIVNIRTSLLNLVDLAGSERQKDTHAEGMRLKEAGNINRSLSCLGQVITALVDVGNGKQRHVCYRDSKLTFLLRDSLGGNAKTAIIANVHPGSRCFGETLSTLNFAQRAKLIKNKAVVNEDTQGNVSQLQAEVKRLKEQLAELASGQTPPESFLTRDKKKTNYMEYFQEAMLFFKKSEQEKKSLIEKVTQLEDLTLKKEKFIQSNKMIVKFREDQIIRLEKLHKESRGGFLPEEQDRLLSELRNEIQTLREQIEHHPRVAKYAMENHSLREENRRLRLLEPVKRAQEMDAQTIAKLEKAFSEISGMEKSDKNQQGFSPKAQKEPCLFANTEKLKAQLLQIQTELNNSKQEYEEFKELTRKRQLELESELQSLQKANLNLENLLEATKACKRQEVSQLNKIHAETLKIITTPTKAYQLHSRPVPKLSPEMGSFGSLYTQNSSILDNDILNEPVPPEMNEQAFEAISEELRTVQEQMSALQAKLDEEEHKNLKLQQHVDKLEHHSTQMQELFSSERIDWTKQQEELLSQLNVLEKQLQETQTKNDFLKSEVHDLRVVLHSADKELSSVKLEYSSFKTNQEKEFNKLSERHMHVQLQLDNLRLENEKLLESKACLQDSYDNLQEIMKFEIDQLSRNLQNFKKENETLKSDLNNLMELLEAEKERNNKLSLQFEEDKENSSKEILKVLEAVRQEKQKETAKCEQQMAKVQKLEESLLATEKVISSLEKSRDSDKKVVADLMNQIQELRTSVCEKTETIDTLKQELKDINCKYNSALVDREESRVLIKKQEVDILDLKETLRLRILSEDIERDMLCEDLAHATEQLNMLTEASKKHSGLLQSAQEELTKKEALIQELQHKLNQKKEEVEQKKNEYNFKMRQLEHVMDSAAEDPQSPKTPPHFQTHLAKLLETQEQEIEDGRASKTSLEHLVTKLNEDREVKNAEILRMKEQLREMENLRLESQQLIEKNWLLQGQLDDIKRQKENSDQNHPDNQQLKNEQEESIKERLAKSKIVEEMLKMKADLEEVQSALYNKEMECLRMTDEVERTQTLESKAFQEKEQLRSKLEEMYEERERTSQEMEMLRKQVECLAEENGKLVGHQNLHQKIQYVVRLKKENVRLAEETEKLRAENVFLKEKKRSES
UniProt Q13303: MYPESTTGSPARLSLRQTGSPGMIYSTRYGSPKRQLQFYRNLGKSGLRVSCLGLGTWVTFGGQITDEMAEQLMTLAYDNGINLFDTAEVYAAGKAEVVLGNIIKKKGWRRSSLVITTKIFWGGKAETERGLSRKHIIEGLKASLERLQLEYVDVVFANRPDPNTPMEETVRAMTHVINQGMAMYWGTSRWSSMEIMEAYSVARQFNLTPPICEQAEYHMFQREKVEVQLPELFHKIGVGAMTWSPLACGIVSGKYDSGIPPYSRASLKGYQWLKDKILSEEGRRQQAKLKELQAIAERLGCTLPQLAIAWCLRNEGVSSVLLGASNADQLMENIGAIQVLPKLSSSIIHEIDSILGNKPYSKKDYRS
UniProt Q92945: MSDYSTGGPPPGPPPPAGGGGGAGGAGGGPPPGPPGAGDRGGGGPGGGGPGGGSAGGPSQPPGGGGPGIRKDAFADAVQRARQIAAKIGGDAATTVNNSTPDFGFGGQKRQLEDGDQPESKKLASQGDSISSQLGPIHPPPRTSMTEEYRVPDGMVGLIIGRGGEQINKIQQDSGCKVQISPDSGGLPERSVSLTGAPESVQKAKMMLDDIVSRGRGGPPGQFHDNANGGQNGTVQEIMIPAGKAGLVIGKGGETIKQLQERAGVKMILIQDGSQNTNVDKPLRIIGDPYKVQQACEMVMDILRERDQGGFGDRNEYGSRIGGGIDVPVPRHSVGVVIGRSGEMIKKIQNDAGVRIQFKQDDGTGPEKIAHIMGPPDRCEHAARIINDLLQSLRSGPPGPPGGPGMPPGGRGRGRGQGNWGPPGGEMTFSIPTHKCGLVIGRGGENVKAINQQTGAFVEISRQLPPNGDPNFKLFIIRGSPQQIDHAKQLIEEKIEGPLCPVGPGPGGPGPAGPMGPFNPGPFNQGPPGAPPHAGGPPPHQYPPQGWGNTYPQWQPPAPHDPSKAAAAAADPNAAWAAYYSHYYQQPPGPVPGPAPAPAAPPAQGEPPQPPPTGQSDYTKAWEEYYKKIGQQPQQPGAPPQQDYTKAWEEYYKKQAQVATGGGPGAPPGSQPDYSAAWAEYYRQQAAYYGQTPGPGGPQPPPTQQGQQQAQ
UniProt P23276: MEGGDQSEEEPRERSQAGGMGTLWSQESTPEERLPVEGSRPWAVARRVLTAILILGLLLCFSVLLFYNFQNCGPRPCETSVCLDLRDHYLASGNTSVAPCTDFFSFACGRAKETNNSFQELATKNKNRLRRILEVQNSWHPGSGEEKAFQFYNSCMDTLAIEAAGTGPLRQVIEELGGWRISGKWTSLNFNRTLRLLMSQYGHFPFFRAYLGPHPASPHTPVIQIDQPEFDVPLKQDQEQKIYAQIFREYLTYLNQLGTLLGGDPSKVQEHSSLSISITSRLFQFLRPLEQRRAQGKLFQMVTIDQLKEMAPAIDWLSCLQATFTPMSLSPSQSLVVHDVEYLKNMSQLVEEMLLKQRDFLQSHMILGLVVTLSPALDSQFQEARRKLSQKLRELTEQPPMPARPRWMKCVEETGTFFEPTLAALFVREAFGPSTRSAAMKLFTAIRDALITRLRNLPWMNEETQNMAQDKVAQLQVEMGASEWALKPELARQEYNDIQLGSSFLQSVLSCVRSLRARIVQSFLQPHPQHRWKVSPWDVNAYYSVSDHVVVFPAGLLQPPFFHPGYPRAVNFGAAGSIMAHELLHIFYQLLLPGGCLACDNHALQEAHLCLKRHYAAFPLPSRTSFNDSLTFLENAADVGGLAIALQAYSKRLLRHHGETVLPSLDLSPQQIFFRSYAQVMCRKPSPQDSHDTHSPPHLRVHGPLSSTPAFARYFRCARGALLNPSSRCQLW

[2] = compound: NC(=O)c1cnc(N[C@@H]2CCCC[C@@H]2N)nc1Nc1cccc(-n2nccn2)c1
Method in brief: as §1

[3] = compound: NC1(c2ccc(-c3nc4ccn5c(=O)[nH]nc5c4cc3-c3ccccc3)cc2)CCC1
Method in brief: as §1

[4] = compound: NCC(=O)Nc1ccc(-n2nc(C(F)(F)F)cc2-c2ccc3c(ccc4ccccc43)c2)cc1
Method in brief: as §1

[5] = compound: Nc1ccccc1NC(=O)c1ccc(CNC(=O)OCc2cccnc2)cc1 [entinostat]
Method in brief: as §1

[6] = compound: O=C(CCCCCCC(=O)Nc1ccccc1)NO [vorinostat]
Method in brief: as §1

[7] = compound: O=C(CCCCCCNC(=O)c1cnc(N(c2ccccc2)c2ccccc2Cl)nc1)NO [citarinostat]
Method in brief: as §1

[8] = compound: O=C(O)c1ccc2c(c1)nc(Nc1cccc(Cl)c1)c1ccncc12 [silmitasertib]
Method in brief: as §1

[9] = compound: O=C1NC(=O)C(c2cnc3ccccn23)=C1c1cn2c3c(cc(F)cc13)CN(C(=O)N1CCCCC1)CC2
Method in brief: as §1

[10] = compound: c1cc(OCCN2CCCCC2)cc(-c2n[nH]c3ccc(-c4nnc[nH]4)cc23)c1
Method in brief: as §1

Measured: log2 fold change

KPNB1 (UniProt Q14974)
inactive: [1] 0.025 | [2] -0.087 | [3] -0.073 | [4] -0.037 | [5] 0.055 | [6] 0.038 | [7] 0.097 | [8] 0.099 | [9] 0.068 | [10] -0.059

KHDC4 (UniProt Q7Z7F0)
inactive: [1] -0.017 | [2] -0.003 | [3] -0.078 | [4] -0.034 | [5] 0.009 | [6] 0.028 | [7] 0.08 | [8] 0.01 | [9] -0.155 | [10] -0.052

KHDRBS1 (UniProt Q07666)
inactive: [1] -0.013 | [2] -0.038 | [3] -0.009 | [4] -0.034 | [5] -0.025 | [6] 0.037 | [7] 0.099 | [8] 0.018 | [9] 0.039 | [10] -0.064

JPT2 isoform 3 (UniProt Q9H910)
inactive: [1] 0.051 | [2] -0.004 | [3] 0.024 | [4] 0.007 | [5] -0.022 | [6] -0.039 | [7] -0.001 | [8] -0.041 | [9] -0.028 | [10] 0.047

KIF5B (UniProt P33176)
inactive: [1] -0.058 | [2] -0.026 | [3] -0.068 | [4] -0.022 | [5] 0.021 | [6] 0.002 | [7] 0.028 | [8] 0.006 | [9] 0.022 | [10] -0.015

KIAA0319L (UniProt Q8IZA0)
inactive: [1] -0.025 | [2] 0.011 | [3] -0.1 | [4] 0.067 | [5] -0.017 | [6] -0.036 | [7] 0.011 | [8] 0.007 | [9] -0.018 | [10] -0.037

KSR1 (UniProt Q8IVT5)
inactive: [1] -0.333 | [2] -0.049 | [3] 0.236 | [4] -0.111 | [5] 0.044 | [6] 0.013 | [7] 0.045 | [8] -0.279 | [9] -0.118 | [10] -0.193

KIAA0100 (UniProt Q14667)
inactive: [1] 0.015 | [2] -0.014 | [3] -0.013 | [4] 0.017 | [5] -0.019 | [6] 0.052 | [7] -0.009 | [8] -0.015 | [9] -0.039 | [10] 0.004

KPNA1 (UniProt P52294)
inactive: [1] -0.02 | [2] -0.014 | [3] -0.047 | [4] -0.058 | [5] 0.099 | [6] 0.036 | [7] 0.166 | [8] 0.088 | [9] 0.064 | [10] -0.037

KIF11 (UniProt P52732)
inactive: [1] -0.096 | [2] -0.075 | [3] -0.001 | [4] -0.067 | [5] 0.023 | [6] 0.099 | [7] -0.006 | [8] 0.147 | [9] 0.182 | [10] -0.044

Copied from above (two entries):
KSR1 (UniProt Q8IVT5)
inactive: [1] -0.333 | [2] -0.049 | [3] 0.236 | [4] -0.111 | [5] 0.044 | [6] 0.013 | [7] 0.045 | [8] -0.279 | [9] -0.118 | [10] -0.193

KIAA0100 (UniProt Q14667)
inactive: [1] 0.015 | [2] -0.014 | [3] -0.013 | [4] 0.017 | [5] -0.019 | [6] 0.052 | [7] -0.009 | [8] -0.015 | [9] -0.039 | [10] 0.004

The results go on.

KIAA2013 isoform 2 (UniProt Q8IYS2)
inactive: [1] -0.085 | [2] -0.034 | [3] -0.069 | [4] -0.03 | [5] -0.058 | [6] 0.036 | [7] 0.022 | [8] 0.029 | [9] -0.035 | [10] 0.03

JUND (UniProt P17535)
inactive: [1] -0.067 | [2] -0.109 | [3] 0.056 | [4] 0.09 | [5] -0.022 | [6] -0.078 | [7] -0.065 | [8] 0.024 | [9] -0.038 | [10] -0.04

KIAA1191 (UniProt Q96A73)
inactive: [1] -0.026 | [2] -0.023 | [3] 0.035 | [4] 0.029 | [5] 0.037 | [6] 0.037 | [7] 0.098 | [8] 0.063 | [9] -0.118 | [10] 0.024

KATNB1 (UniProt Q9BVA0)
inactive: [1] -0.001 | [2] 0 | [3] -0.09 | [4] -0.112 | [5] 0.04 | [6] 0.163 | [7] 0.034 | [8] 0.013 | [9] 0.04 | [10] -0.144

KNSTRN (UniProt Q9Y448)
inactive: [1] -0.005 | [2] -0.078 | [3] 0.057 | [4] 0.008 | [5] 0.084 | [6] 0.015 | [7] 0.022 | [8] 0.112 | [9] 0.164 | [10] -0.102

KNTC1 (UniProt P50748)
inactive: [1] -0.037 | [2] -0.1 | [3] -0.193 | [4] -0.046 | [5] 0.049 | [6] 0.029 | [7] 0.037 | [8] 0.077 | [9] 0.013 | [10] -0.004

KAZN isoform 3 (UniProt Q674X7)
inactive: [1] 0.017 | [2] 0.04 | [3] -0.017 | [4] -0.015 | [5] 0.024 | [6] -0.069 | [7] 0.015 | [8] -0.003 | [9] -0.075 | [10] 0.016

KIF15 (UniProt Q9NS87)
inactive: [1] 0.046 | [2] -0.083 | [3] 0.049 | [4] -0.067 | [5] -0.057 | [6] 0.128 | [7] 0.041 | [8] 0.082 | [9] 0.282 | [10] -0.107

KDELR2 (UniProt P33947)
inactive: [1] -0.071 | [2] 0.063 | [3] -0.073 | [4] -0.133 | [5] -0.02 | [6] -0.238 | [7] -0.026 | [8] -0.018 | [9] -0.031 | [10] -0.097

KIF1B isoform 4 (UniProt O60333)
inactive: [1] 0.043 | [2] -0.059 | [3] -0.16 | [4] -0.03 | [5] 0.011 | [6] 0.063 | [7] 0.054 | [8] 0.009 | [9] -0.037 | [10] -0.062

KIF2C (UniProt Q99661)
inactive: [1] -0.024 | [2] 0 | [3] -0.053 | [4] -0.068 | [5] 0.095 | [6] 0.122 | [7] 0.156 | [8] -0.009 | [9] -0.005 | [10] -0.001

KCT2 (UniProt Q8NC54)
inactive: [1] 0.047 | [2] -0.029 | [4] 0.013 | [5] -0.054 | [6] 0.022 | [7] 0.05 | [8] 0.035 | [9] 0.047 | [10] -0.02
active: [3] -0.378

KCNAB2 (UniProt Q13303)
inactive: [1] 0.04 | [2] -0.016 | [3] -0.069 | [4] -0.04 | [5] -0.021 | [6] -0.1 | [7] 0.117 | [8] 0.037 | [9] -0.037 | [10] -0.051

KIAA1324L (UniProt A8MWY0)
inactive: [1] -0.016 | [2] -0.015 | [3] -0.138 | [4] 0.009 | [5] -0.067 | [6] 0.003 | [7] 0.004 | [8] -0.014 | [9] -0.013 | [10] -0.094

KHSRP (UniProt Q92945)
inactive: [1] -0.016 | [2] -0.021 | [3] 0.026 | [4] -0.007 | [5] -0.022 | [6] -0.026 | [7] -0.062 | [8] -0.011 | [9] 0.004 | [10] 0.007

KPNA3 (UniProt O00505)
inactive: [1] 0.045 | [2] -0.064 | [3] -0.111 | [4] -0.036 | [5] -0.017 | [6] -0.027 | [7] 0.045 | [8] -0.015 | [9] -0.012 | [10] -0.056

KMT2C isoform 3 (UniProt Q8NEZ4)
active: [3] -0.756
inactive: [1] -0.021 | [2] 0.046 | [4] -0.006 | [5] -0.03 | [6] 0.19 | [7] 0.104 | [8] -0.052 | [9] -0.094 | [10] -0.076

IWS1 (UniProt Q96ST2)
inactive: [1] -0.049 | [2] 0.034 | [3] -0.028 | [4] -0.171 | [5] 0.012 | [6] -0.008 | [7] -0.059 | [8] 0.054 | [9] -0.032 | [10] 0

KEL (UniProt P23276)
inactive: [1] -0.004 | [2] 0.088 | [3] -0.215 | [4] 0.017 | [5] -0.022 | [6] 0.03 | [7] 0.019 | [8] 0.108 | [9] 0.115 | [10] -0.001

Source: the supplement of paper PMC10849652
